Measured values from the supplement of paper PMC10849652.
This is one part of the list.

Protein sequences, listed by entry. Tags and fused reporters are not part of them. Lines headed by an entry give the natural chain unless they say otherwise; changes in a name come on top.
UniProt Q969S8: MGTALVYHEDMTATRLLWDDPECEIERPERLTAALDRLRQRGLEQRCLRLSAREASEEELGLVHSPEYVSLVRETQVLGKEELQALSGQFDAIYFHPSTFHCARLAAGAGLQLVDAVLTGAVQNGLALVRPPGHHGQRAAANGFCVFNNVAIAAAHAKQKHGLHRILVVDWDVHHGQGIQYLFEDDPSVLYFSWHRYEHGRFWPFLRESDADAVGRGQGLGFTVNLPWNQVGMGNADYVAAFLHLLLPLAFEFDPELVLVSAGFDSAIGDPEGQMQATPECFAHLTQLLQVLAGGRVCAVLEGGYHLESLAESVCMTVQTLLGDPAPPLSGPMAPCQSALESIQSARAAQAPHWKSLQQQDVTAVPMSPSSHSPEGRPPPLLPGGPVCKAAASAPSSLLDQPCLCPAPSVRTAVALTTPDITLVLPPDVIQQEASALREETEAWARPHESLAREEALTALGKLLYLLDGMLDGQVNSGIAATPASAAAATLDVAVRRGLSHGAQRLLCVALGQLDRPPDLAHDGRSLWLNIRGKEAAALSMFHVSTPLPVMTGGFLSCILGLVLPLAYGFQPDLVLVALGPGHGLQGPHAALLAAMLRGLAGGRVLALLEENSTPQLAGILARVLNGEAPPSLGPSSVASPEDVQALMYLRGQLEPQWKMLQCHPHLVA
UniProt Q9Y5Q8: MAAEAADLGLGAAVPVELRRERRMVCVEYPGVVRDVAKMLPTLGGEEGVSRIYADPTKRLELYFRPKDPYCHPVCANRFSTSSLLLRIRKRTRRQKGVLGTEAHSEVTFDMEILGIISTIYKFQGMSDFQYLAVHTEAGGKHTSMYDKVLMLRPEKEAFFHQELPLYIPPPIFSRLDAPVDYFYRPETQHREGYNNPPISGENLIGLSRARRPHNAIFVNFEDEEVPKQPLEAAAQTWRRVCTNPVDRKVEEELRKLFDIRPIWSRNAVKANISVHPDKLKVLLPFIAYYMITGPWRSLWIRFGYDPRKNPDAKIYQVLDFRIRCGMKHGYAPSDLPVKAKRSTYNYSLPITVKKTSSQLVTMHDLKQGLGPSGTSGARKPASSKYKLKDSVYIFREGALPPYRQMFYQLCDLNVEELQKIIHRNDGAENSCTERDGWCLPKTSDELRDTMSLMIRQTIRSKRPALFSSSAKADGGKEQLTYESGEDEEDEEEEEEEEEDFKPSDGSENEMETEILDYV
UniProt P69905, whole entry, looked up: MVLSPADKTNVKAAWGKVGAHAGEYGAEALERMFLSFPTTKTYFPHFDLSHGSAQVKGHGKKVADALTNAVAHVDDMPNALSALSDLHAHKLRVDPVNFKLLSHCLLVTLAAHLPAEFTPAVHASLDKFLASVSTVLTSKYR
UniProt P78417: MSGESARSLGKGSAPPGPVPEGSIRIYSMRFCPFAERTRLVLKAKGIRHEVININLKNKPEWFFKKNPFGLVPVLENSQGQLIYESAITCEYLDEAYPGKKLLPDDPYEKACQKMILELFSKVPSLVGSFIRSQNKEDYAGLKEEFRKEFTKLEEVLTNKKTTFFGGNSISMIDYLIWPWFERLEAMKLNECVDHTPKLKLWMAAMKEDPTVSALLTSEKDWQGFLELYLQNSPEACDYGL
UniProt Q9NVX0: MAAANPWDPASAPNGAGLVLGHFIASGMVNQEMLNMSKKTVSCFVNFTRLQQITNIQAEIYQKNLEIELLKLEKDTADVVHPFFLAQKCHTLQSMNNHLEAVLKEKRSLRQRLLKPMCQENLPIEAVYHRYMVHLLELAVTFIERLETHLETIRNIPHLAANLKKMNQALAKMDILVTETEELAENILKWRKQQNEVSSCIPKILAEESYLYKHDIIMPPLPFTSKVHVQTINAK
UniProt O75367, whole entry, looked up: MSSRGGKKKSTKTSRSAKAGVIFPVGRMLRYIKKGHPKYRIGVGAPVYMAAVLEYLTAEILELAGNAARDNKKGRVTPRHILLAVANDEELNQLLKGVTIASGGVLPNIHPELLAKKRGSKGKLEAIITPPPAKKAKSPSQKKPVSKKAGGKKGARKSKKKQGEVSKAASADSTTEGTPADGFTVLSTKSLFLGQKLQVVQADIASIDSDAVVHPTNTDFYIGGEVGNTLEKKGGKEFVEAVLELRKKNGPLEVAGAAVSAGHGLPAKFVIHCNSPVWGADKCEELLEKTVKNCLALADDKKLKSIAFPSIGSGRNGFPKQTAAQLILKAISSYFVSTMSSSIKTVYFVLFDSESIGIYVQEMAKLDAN
UniProt Q68CZ6: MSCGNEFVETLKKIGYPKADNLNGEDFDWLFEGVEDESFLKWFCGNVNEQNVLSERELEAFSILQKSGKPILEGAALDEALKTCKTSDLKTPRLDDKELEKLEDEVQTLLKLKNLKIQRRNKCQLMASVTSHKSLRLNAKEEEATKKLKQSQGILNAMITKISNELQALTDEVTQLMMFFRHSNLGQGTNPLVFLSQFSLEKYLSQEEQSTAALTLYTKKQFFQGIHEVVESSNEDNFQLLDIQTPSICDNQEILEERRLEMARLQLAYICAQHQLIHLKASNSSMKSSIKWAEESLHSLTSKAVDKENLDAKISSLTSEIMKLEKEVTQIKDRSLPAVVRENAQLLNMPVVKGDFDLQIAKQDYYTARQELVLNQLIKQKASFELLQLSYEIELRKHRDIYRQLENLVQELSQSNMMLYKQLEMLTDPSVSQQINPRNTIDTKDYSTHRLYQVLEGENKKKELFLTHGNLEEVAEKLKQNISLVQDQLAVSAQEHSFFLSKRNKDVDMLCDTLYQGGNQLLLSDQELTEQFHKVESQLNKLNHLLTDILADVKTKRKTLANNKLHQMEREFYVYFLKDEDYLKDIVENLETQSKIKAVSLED
UniProt P16402, whole entry, looked up: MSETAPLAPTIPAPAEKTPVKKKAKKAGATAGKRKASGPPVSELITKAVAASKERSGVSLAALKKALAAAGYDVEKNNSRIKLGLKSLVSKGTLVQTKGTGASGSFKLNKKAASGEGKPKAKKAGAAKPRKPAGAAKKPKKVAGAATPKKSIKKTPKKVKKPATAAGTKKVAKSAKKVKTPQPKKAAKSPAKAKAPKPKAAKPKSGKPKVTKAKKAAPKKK

Legend:
Assay in all cases: log2 fold change, soluble protein after heating vs DMSO (PISA); higher = thermal stabilisation; K562 lysate, 10 uM; active = over 0.2 and 3.5 SD of the protein, either way, in both replicates (recomputed)
vemurafenib = compound: CCCS(=O)(=O)Nc1ccc(F)c(C(=O)c2c[nH]c3ncc(-c4ccc(Cl)cc4)cc23)c1F [vemurafenib]
In short: (§1)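 Soluble protein was defined as the supernatant remaining after 21,000xg for 90 min, following pooling of heated aliquots and adjustment to 0.5% NP-40 at 4°C. Before that, crude K562 extract at 1 mg/mL protein in PBS pH 7.4 with 1 mM MgCl2 was treated with 10 μM compound for 30 min and heated for 3 min across 48°C-58°C. Quantification used TMTpro 16plex LC-MS/MS with channel sums equalised, and values are log-two fold changes in thermal stability relative to solvent controls from duplicates.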

[1] = compound: CCCS(=O)(=O)Nc1ccc(F)c(C(=O)c2c[nH]c3ncc(Cl)cc23)c1F
In short: as §1

barasertib = compound: CCN(CCCOc1ccc2c(Nc3cc(CC(=O)Nc4cccc(F)c4)[nH]n3)ncnc2c1)CCOP(=O)(O)O [barasertib]
In short: as §1

[2] = compound: CC[C@@H]1C(=O)N(C)c2cnc(Nc3ccc(C(=O)NC4CCN(C)CC4)cc3OC)nc2N1C1CCCC1
In short: as §1

volasertib = compound: CC[C@@H]1C(=O)N(C)c2cnc(Nc3ccc(C(=O)N[C@H]4CC[C@H](N5CCN(CC6CC6)CC5)CC4)cc3OC)nc2N1C(C)C [volasertib]
In short: as §1

[3] = compound: CCn1c(C(=O)N(C2CC2)C2CC2)cc2c3c(ncn3C)c(Nc3cc(C)n(C)n3)nc21
In short: as §1

[4] = compound: CCn1cc(-c2ccnc3[nH]c(-c4cccc(CN(C)C)c4)cc23)c(-c2ccc(NC(=O)N(C)C)cc2)n1
In short: as §1

[5] = compound: CN1CCC(CNc2ccc3ncc(-c4cccc(OC(F)(F)F)c4)n3n2)CC1
In short: as §1

saracatinib = compound: CN1CCN(CCOc2cc(OC3CCOCC3)c3c(Nc4c(Cl)ccc5c4OCO5)ncnc3c2)CC1 [saracatinib]
In short: as §1

sotrastaurin = compound: CN1CCN(c2nc(C3=C(c4c[nH]c5ccccc45)C(=O)NC3=O)c3ccccc3n2)CC1 [sotrastaurin]
In short: as §1

alvocidib = compound: CN1CC[C@H](c2c(O)cc(O)c3c(=O)cc(-c4ccccc4Cl)oc23)[C@H](O)C1 [alvocidib]
In short: as §1

Tubastatin A = compound: CN1CCc2c(c3ccccc3n2Cc2ccc(C(=O)NO)cc2)C1 [Tubastatin A]
In short: as §1

[6] = compound: CNC(=O)C1=CC=CC=C1NC2=NC(=NC=C2Cl)NC3=C(C=C(C=C3)N4CCOCC4)OC
In short: as §1

defactinib = compound: CNC(=O)c1ccc(Nc2ncc(C(F)(F)F)c(NCc3nccnc3N(C)S(C)(=O)=O)n2)cc1 [defactinib]
In short: as §1

[7] = compound: CNc1nc(-c2ccc3c(N)n[nH]c3c2)cc(N2C[C@@H](C(=O)NC3CCCCC3)CC[C@H]2C)n1
In short: as §1

encorafenib = compound: COC(=O)N[C@@H](C)CNc1nccc(-c2cn(C(C)C)nc2-c2cc(Cl)cc(NS(C)(=O)=O)c2F)n1 [encorafenib]
In short: as §1

[8] = compound: COC(=O)[C@H](CCSC)NC(=O)C1=C(C=C(C=C1)NC[C@H](CS)N)C2=CC=CC=C2
In short: as §1

alisertib = compound: COc1cc(Nc2ncc3c(n2)-c2ccc(Cl)cc2C(c2c(F)cccc2OC)=NC3)ccc1C(=O)O [alisertib]
In short: as §1

[9] = compound: COc1cc2nc(-c3cc(F)ccc3O)nc(N[C@@H]3CNC[C@H]3C(C)(C)O)c2cc1OC
In short: as §1

gefitinib = compound: COc1cc2ncnc(Nc3ccc(F)c(Cl)c3)c2cc1OCCCN1CCOCC1 [gefitinib]
In short: as §1

Measured: log2 fold change

HDAC10 (UniProt Q969S8)
inactive: vemurafenib 0.142 | [1] -0.093 | barasertib 0.009 | [2] -0.052 | volasertib -0.056 | [3] -0.117 | [4] -0.026 | [5] 0.02 | saracatinib -0.052 | sotrastaurin -0.069 | alvocidib 0.033 | [6] -0.075 | defactinib -0.135 | [7] -0.014 | encorafenib 0.091 | [8] 0.08 | alisertib 0.047 | [9] -0.006 | gefitinib 0.165
active: Tubastatin A 0.49

GTF3C5 isoform 3 (UniProt Q9Y5Q8)
inactive: vemurafenib 0.024 | [1] 0.009 | barasertib -0.011 | [2] 0.006 | volasertib -0.018 | [3] 0.051 | [4] -0.025 | [5] 0.017 | saracatinib 0.031 | sotrastaurin -0.033 | alvocidib -0.005 | Tubastatin A -0.166 | [6] 0.029 | defactinib 0.014 | [7] -0.012 | encorafenib 0.01 | [8] 0.153 | alisertib 0.004 | [9] 0.001 | gefitinib -0.004

HBA1 (UniProt P69905)
inactive: vemurafenib -0.014 | [1] -0.035 | barasertib 0.102 | [2] -0.018 | volasertib 0.086 | [3] 0.03 | [4] -0.054 | [5] -0.03 | saracatinib 0.03 | sotrastaurin -0.055 | alvocidib 0.145 | Tubastatin A 0.074 | [6] 0.032 | defactinib 0.122 | [7] 0.031 | encorafenib 0.019 | [8] -0.042 | alisertib 0.045 | [9] -0.028 | gefitinib -0.16

GSTO1 (UniProt P78417)
inactive: vemurafenib -0.053 | [1] -0.017 | barasertib -0.05 | [2] 0.007 | volasertib 0.025 | [3] 0.043 | [4] 0.121 | [5] -0.054 | saracatinib 0 | sotrastaurin -0.016 | alvocidib 0.045 | Tubastatin A 0.032 | [6] -0.015 | defactinib -0.01 | [7] -0.023 | encorafenib -0.007 | [8] -0.018 | alisertib 0.002 | [9] -0.026 | gefitinib -0.007

HAUS2 (UniProt Q9NVX0)
inactive: vemurafenib -0.076 | [1] -0.005 | barasertib 0.097 | [2] 0.018 | volasertib 0.038 | [3] 0.036 | [4] 0.141 | [5] -0.089 | saracatinib 0.048 | sotrastaurin -0.007 | alvocidib 0.069 | Tubastatin A -0.079 | [6] 0.041 | defactinib -0.171 | [7] -0.047 | encorafenib 0.088 | [8] 0.043 | alisertib -0.037 | [9] 0.014 | gefitinib -0.049

H2AFY (UniProt O75367)
inactive: vemurafenib -0.042 | [1] 0.013 | barasertib 0.094 | [2] 0.131 | volasertib -0.036 | [3] -0.001 | [4] -0.059 | [5] 0.056 | saracatinib -0.077 | sotrastaurin 0.104 | alvocidib -0.034 | Tubastatin A 0.079 | [6] -0.026 | defactinib 0.106 | encorafenib 0.094 | [8] 0.014 | alisertib 0.001 | [9] 0 | gefitinib 0
active: [7] 0.329

HAUS3 (UniProt Q68CZ6)
inactive: vemurafenib 0.012 | [1] 0.024 | barasertib 0.006 | [2] -0.029 | volasertib -0.048 | [3] 0.002 | [4] -0.035 | [5] -0.065 | saracatinib -0.016 | sotrastaurin 0.01 | alvocidib -0.022 | Tubastatin A -0.159 | [6] 0.043 | defactinib -0.023 | [7] -0.021 | encorafenib 0.026 | [8] 0.065 | alisertib 0.014 | [9] 0.003 | gefitinib -0.011

H1-3 (UniProt P16402)
inactive: vemurafenib -0.003 | [1] -0.018 | barasertib -0.053 | [2] 0.017 | volasertib 0.013 | [3] -0.073 | [4] -0.053 | [5] 0.033 | saracatinib -0.016 | sotrastaurin 0.013 | alvocidib 0.044 | Tubastatin A 0.099 | [6] -0.012 | defactinib -0.011 | [7] 0.006 | encorafenib -0.003 | [8] -0.023 | alisertib 0.006 | [9] 0.017 | gefitinib -0.021
